Laboratory results from PubChem BioAssay AID1347423 (Functional Genomics Laboratory (NCATS/FGL), 2020).
The whole screen tested about 52,000 sequences, of which about 210 (0.4%) were called active.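 The calls were made as follows: active = gene whose silencing raises cell survival under the drug, median off-target-corrected z-score across its silencing RNAs 2 or more; inactive = the rest.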 Some of the results follow.

Assay: Resistance to Poly (ADP-Ribose) Polymerase inhibitor: Gene Identification via Genome-wide siRNA Screen
Conditions: mouse BRCA2 R2336H ES cells, olaparib, CellTiter-Glo viability; stronger effect = higher value
How it was run: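 Mouse BRCA2 R2336H ES cells were reverse-transfected with siRNA (20 nM final), treated at 48 h with 500 nM olaparib, and read by CellTiter-Glo after 72 h. Scores: MAD-based z per siRNA, median per gene, seed off-target correction.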

| Sequence | z-score |
| --- | --- |
| GGCUGACAAGAGAUUUAAATT against 4930430F08Rik | inactive: -0.291 |
| GGUUAUAGCAUCCUUAACUTT against Hspc171 | inactive: -0.104 |
| GGAUGGACUCUGUUCCUGUTT against Susd2 | inactive: 0.297 |
| GGUACGAGCUGUUCGCCAUTT against D330013L20Rik | inactive: 0.966 |
| GGACGUAGCUAUGGAGGAUTT against 1810009A15Rik | inactive: -0.583 |
| GCAGGAUCAGCUGUUCACATT against BC037651 | inactive: -1.4 |
| CCUAAUUUCCUAGAUCUUCTT against Gm604 | inactive: 0.279 |
| GGAUCUGGGAAUCACCUCUTT against Trpv6 | inactive: -0.178 |
| GCUAAAGAACGGUAUAUCGTT against Agxt2 | inactive: 0.849 |
| GGAAUCCAGAACUUGAUCGTT against Mfn1 | inactive: -0.149 |
| GGAAAGCAUGUUGUACUUATT against BC006662 | inactive: 0.473 |
| GCCGCCAGUACUAUUCUAUTT against 4930521E07Rik | inactive: -0.384 |
| GCGGUGUAAACAGAUGGAGTT against Apg3l | inactive: 0.302 |
| GCCUUGCCCUGACUAUGUUTT against Paqr3 | inactive: -0.724 |
| GGAGCCCUAUACAGGGUUUTT against Tusc5 | inactive: -1.48 |
| GCUCGUGUACCUCUAUCUGTT against Ap2b1 | inactive: -0.341 |
| GGACAAGGUCUUUAAUGUUTT against Fbxo3 | inactive: 0.0569 |
| GCCAGAACAGAAUCCAGGGTT against Sftpb | inactive: -0.669 |
| GGGUCUUUCCAUCUACCUCTT against Magel2 | inactive: -0.407 |
| GGCUACCCUUUUGAACCUCTT against Psmd3 | inactive: -2.83 |
| GGGUCUAGAGUGCAUCUUCTT against Kb40 | inactive: -0.264 |
| GGAAGUACUAUUACUGGACTT against Epha7 | inactive: 0.162 |
| CCGUAUUUGUGCUGUGUCUTT against Olfr275 | inactive: -0.00585 |
| GGAAGUAUGUCCAGUCAUATT against Ifit3 | inactive: 0.104 |
| GGUCCACAAGUUCAUCGUCTT against Rpa1 | inactive: -3.54 |
| GGUGCUACUGGAAGAAGGGTT against Ubl4 | inactive: -0.151 |

| Sequence | z-score |
| --- | --- |
| GGUGUUUUACAUAUCGUAATT against Usp49 | inactive: 0.192 |
| GGUAUCUUCUCUUGGAAAATT against Tex12 | inactive: -0.489 |
| CGUGACCAACAUGAUACUUTT against Farsla | inactive: -0.891 |
| GGAAUUGGCAACAUAAAAATT against Vldlr | inactive: 1.02 |
| GGUGAAAGUACUGAGGAAGTT against Rnf12 | inactive: -1.52 |
| GGCAAAUUUGGAAACGUGUTT against Aurkb | inactive: -0.249 |
| GCACAAUGGUGUUAAGUCATT against Gm237 | inactive: -0.478 |
| CCUUCUCCUCGUGCAAGUATT against Cort | inactive: -2.1 |
| GCCUUGUCUUCCUUCAGUGTT against Sprr2a | inactive: -1.08 |
| CGAGGUGAAGGAUUACACCTT against 1810049K24Rik | inactive: 0.282 |
| GGUGGCACUCUUUCAGAUCTT against 6030446I19Rik | inactive: 0.179 |
| GGUAAUAAACGGUAAAUUGTT against B430306N03Rik | inactive: 1.28 |
| GGAUGAAGGAACUAAAUAUTT against Cog3 | inactive: -2.67 |
| CCAAUGUCAAGCAACUUCATT against Arnt2 | inactive: 0.00418 |
| CCUUAUCUCUACCAUCGGUTT against Hyal2 | inactive: -0.274 |
| GCAACAUUAGGAUUUAUAGTT against 1110032E23Rik | inactive: -0.366 |
| GCCAUAAUGCUAUUGUUCATT against Cacna1b | inactive: -0.324 |
| CCAAUUACGGACUGUGUGUTT against Wfdc2 | inactive: -0.229 |
| GGCUAGCUGCCCUUGUAUATT against 2810021O14Rik | inactive: -0.00766 |
| GCGACAAAUGUAGCCCUUGTT against Mrpl36 | inactive: -2.53 |
| CCAUUGUUCCAUUCUAAGUTT against Sema7a | inactive: 1.34 |
| CCCAAUCCUCCCAUGUUUCTT against Usp22 | inactive: -0.137 |
| GGUUCUCUAACAGAACUUUTT against 4631426G04Rik | inactive: 0.696 |
| GGAUGUACUGAGUAGCUUUTT against Nical | inactive: -1.08 |
| CCACCAAAGGAGAAAGAGATT against Tcea3 | inactive: -2.78 |
| GUCAGAAAGAGAAGCUCGATT against Rps28 | inactive: -3.23 |

Quoted at random: 3 entries already listed

| Sequence | z-score |
| --- | --- |
| GGUGAAAGUACUGAGGAAGTT against Rnf12 | inactive: -1.52 |
| GCGACAAAUGUAGCCCUUGTT against Mrpl36 | inactive: -2.53 |
| GCACAAUGGUGUUAAGUCATT against Gm237 | inactive: -0.478 |

Further results follow:

| Sequence | z-score |
| --- | --- |
| GACUGGAUUUUAGUUCAUUTT against A130014H13Rik | inactive: -1.46 |
| GGCCCUCUACAAUAUCGUCTT against D8Wsu151e | inactive: 0.171 |
| CCUAUAUUUUCAAAGAUGGTT against Gstm1 | inactive: 1.98 |
| CCCGGAAACAACACAUUGCTT against Tyrobp | inactive: 0.506 |
| GGAAUUAUUCAUGACACAGTT against Hspa9a | inactive: -2.55 |
| GGAGGUGCAGAAAAUCAUCTT against BC037703 | inactive: -0.187 |
| GGCUUUCCUUCGGAAGAAUTT against Abca14 | inactive: 0.571 |
| GGGCCCAGAUUUCAAUGGGTT against Car14 | inactive: -0.343 |
| GGAUUUAGAUCACUUGGAGTT against 2010300G19Rik | inactive: 0.11 |
| CGGAAAGCAUUAAAGCUAUTT against Bbs7 | inactive: 0.179 |
| GCAGAAAAACGUGAACAUUTT against LOC13909 | inactive: -2.47 |
| GGAGCUGUUUUUCCACUCCTT against Phlda2 | inactive: 2.16 |
| GGUAAACUGCUCAAGAUGUTT against Ceacam12 | inactive: 1.4 |
| GGGAAUAAUGUCUAGUUUGTT against Drctnnb1a | inactive: 0.175 |
| GGACGACAAGGACUUCACGTT against Kcna1 | inactive: 0.264 |
| GGUAUUUGUUAGGCCACAGTT against Svp2 | inactive: 0.184 |
| GGGCUUAUGGAGUUGUAAATT against Avpi1 | inactive: 0.66 |
| GGAGAAGCUCUUAAAGAAATT against 6030423D04Rik | inactive: -1.1 |
| GGAUGAGAACUACAUGAUCTT against Card10 | inactive: 0.324 |
| GGAAAAUUUGCUGUGGUUATT against Stk17b | inactive: 1.25 |
| GCUUAGGAGAAAGAGCAAUTT against Gpr139 | inactive: 1.74 |
| GCUUAACCUCAGAGAUGAUTT against Mbip | inactive: -1.9 |
| GGACUGCAUCUUUAAAGAATT against A230062G08Rik | inactive: -0.75 |
| CCAUUAUGAGUAUAGUUGCTT against 1810045K17Rik | inactive: 0.0923 |
| GCAGUUAAUACUUACCGCGTT against A430057M04Rik | inactive: 0.356 |
| GGAAACCAGGUCUCAGAGUTT against Pde4a | inactive: 1.88 |

Two neighbouring entries already listed:

| Sequence | z-score |
| --- | --- |
| GACUGGAUUUUAGUUCAUUTT against A130014H13Rik | inactive: -1.46 |
| GGCCCUCUACAAUAUCGUCTT against D8Wsu151e | inactive: 0.171 |

(listing goes on)

| Sequence | z-score |
| --- | --- |
| GGCCCUCCCAAAUCAUUUGTT against Slc30a6 | inactive: 0.405 |
| CCAUAAGUAGGAUUCUAUCTT against Mrg1 | inactive: -0.585 |
| CGCUUUACCUUCCCGUUUATT against A630026F04 | inactive: -1.33 |
| GCAGGAUAUGUAAAGGUUUTT against Ian4 | inactive: -0.928 |
| GGACCUAUUUCUCUGCUCCTT against E330026B02Rik | inactive: -0.251 |
| GCCAGUCUAUGCAAACCCUTT against Foxo3 | inactive: -0.121 |
| GGUUUUUCAGAAAUUAGUGTT against Olfr1163 | inactive: -1.14 |
| GCGAAGGAAUUUAAGGACCTT against Tmod1 | inactive: 0.198 |
| GCUAGUCCUCAAGCUUCUGTT against Snapc2 | inactive: -0.928 |
| CUUUUGUAAAGCCUUCCACTT against BC038328 | inactive: 0.675 |
| GCACUGUACAGCCGUUUAUTT against 4933401I19Rik | inactive: -1.1 |
| GCAGAAGUACGAUGGAAUCTT against Rpl11 | inactive: -2.03 |
| CCGCCUAAAUGACUUGACATT against Fbxo12 | inactive: -0.664 |
| GCUGUCAGUCAAUACAAAATT against 4930535E21Rik | inactive: -0.186 |
| GGUCAAAGAUGCAUUGAAGTT against Glmn | inactive: -1.37 |
| GGCUGAUUCUCAUCACAUUTT against E130309D02Rik | inactive: -0.452 |
| GCAUGAAUAGCAAGCGAAGTT against AW545966 | inactive: 0.914 |
| GCUUUUCCGACAGGACCUGTT against 4932417H02Rik | inactive: -1.62 |
| GGAUUUUGCACAAACAGAATT against Col11a1 | inactive: -0.456 |
| GGUGUUCAACUCCACUAUGTT against Nhlrc1 | inactive: -0.873 |
| GCUCGAUGUGAACUGCUAGTT against Ankrd9 | inactive: -1.84 |
| GGGUCUUGUUAAUCUGUAUTT against Pparbp | inactive: 0.119 |
| GGGUUUUGAGAUGUAAUGATT against Mir | inactive: -0.423 |
| CCUUGUACAACACUGGCCGTT against Car11 | inactive: -0.144 |
| CGGUGAACUAUGGUCCUGATT against 9130012D09Rik | inactive: 0.368 |
